Source: patent US20240327540A1
These are yes or no findings as the source states them, for the method shown. Some entries that bind do so weakly or less than the wild type.

The chains behind the UniProt entries cited, without tags or fusion partners. Where a name states a change or a piece, a line headed by the entry shows the natural chain unless it says otherwise.
UniProt Q9UNK4: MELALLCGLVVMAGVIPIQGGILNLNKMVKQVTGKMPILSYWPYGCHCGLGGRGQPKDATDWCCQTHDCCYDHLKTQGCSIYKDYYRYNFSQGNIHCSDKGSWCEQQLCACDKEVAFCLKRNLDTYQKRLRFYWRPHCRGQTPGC

Key:
human PLA2G2D (human) [1] = target: human PLA2G2D (human) (UniProt Q9UNK4); test: assay not given
human PLA2G2D (human) [2] = target: human PLA2G2D (human) (UniProt Q9UNK4); test: ELISA / flow cytometry screening of hybridoma antibodies

Binder	binding (human PLA2G2D (human) [1])	binding (human PLA2G2D (human) [2])
44.66C9.H2 (HC/LC) (antibody, V domains shown) VH: DVQLQESGPGLVKPSQSLSLTCSVTGYSITSGYYWNWIRQFPGNKLEWMGYISYDGSNNYNPSLKSRISITRDTSKNQFFLKLNSVTTEDTATYYCARWGYYDSRIDYWGQGTTLTVSS VL: ETTVTQSPASLSMAIGEKVTIRCITSTDIDDDMNWFQQKPGEPPKLLISEGNTLRPGVPSRFSSNGSGTDFVFTIENMLSEDVADYYCLQSDNLPFTFGAGTKVELK	binds	binds
47.34G6.H6 (antibody, V domains shown) VH: QVTLKESGPGILQSSQTLSLTCSFSGFSLSTSGMGVSWIRQPSGKGLEWLAHIYWDDANRYNPSLESRLTISKDTSRNQVFLKITSVDTADTATYYCAWRSGDWYFDVWGTGTTVTVSS VL: QIVLTQSPAIMSASPGEKVTLSCSASSIVRYIYWYQQKPGSSPKPWIYRTFNLASGVPARFSGSGSGTSYSLTISTMEAEDAATYYCQQYHTYPLTFGAGTKLELK	binds	binds
44.18E2.G12 (antibody, V domains shown) VH: DVQLQESGPGLVKPSQSLSLTCSVTGYSITSGYYWNWIRQFPGNKLEWMGYISYDGSKNYNPSLKSRISITRDTSKNQFFLKLNSVTTEDTATYYCARWGYYDSRIDYWGQGTTLTVSS VL: ETTVTQSPASLSMAIGEKVTIRCITSTDIDDDMNWYQQKPGEPPKLLISEGNTFRPGVPSRFSSSGYGTDFVFTIENMLSEDVADYYCLQSDNLPFTFGAGTKVELK	binds	binds
48.33E9.B12 (antibody, V domains shown) VH: QVQLKESGPGLVQPSQTLSLTCTVSGFSLTSKGVSWVRQPPGKGLEWIAAISSSGSTYYDSPLKSRLSISRDTSKSQVFLKMNSLQTEDTAIYFCTRVGDDRFDYWGQGVMVTVSS VL: SYELIQPPSASVTLENTVSITCSGDELSNKYVHWYQQKPDKTILEVMYKDSERPSGISDRFSGSSSGTTAILTIRDAQAEDEADYYCLSTFNDDDLPVFGGGTKLTVL	binds	binds
48.34F9.E10.C5 (antibody, V domains shown) VH: QVQLKESGPGLVQPSQTLSLTCTVSGFSLTSNGVTWVRQPPGKGLEWIAAISSGGTTYYDSALKSRLSISRDTSKSQVFLQMNSLQTEDTATYFCARVGGDRFDYWGQGVMVTVSS VL: SYELIQPPSASVTLENTVSITCSGDELSRKYVHWYQQKPDKTILEVMYKDSERPSGISDRFSGSSSGTTASLTIRDAQAEDEADYYCLSTYGVDDLPVFGGGTKLTVL	binds	binds
48.15C1.A6 (antibody, V domains shown) VH: QVQLKESGPGLVQPSQTLSLTCTVSGFSLISYDMHWVRQPPGEGLEWMGVIWSNGNTHYNSTLKSRLSISRDTSKSQVFLEMNSLQTEDTAIYFCSRYPFAYWGQGTLVTVSS VL: DIQMTQSPSSLPASLGDRVTITCRASQDIGDYLRWFQQKPGKSPRLMIFGATNLANGVPSRFSGSRSGSDYSLTINSLESEDLAIYYCLQHKEYFPTFGGGTKLELK	binds	binds
48.29H4.A5 (antibody, V domains shown) VH: QVQLKESGPGLVQPSQTLSLTCTVSGFALTSYDMQWVRQPPGKGLEWMGAIWANGNIQYNSILKSRLSISRDTSKSQVFLKMNSLQTEDTAIYFCARFRFDYWGQGVMVTVSS VL: DIQMTQSPASLSASLGETVTIECLASEDIYSNLAWYQQKPGKSPQLLIYDASSLQDGVPSRFSGSESGTQYSLEINSLQSEDAVTYFCQHHRDSPLTFGSGTKLEIK	binds	binds
48.29H4.A5 (LC2) (antibody, V domains shown) VH: QVQLKESGPGLVQPSQTLSLTCTVSGFALTSYDMQWVRQPPGKGLEWMGAIWANGNIQYNSILKSRLSISRDTSKSQVFLKMNSLQTEDTAIYFCARFRFDYWGQGVMVTVSS VL: DIQMTQSPSSLPASLGDRVTITCRASQDIGNYLRWFQQKPGKSPRLMIYGATNLANGVPSRFSGSRSGSDYSLTINSLESEDMAIYYCLQHNEYPLTFGSGTKLEIK	binds	binds
48.25B3.A6 (antibody, V domains shown) VH: QVQLKESGPGLVQPSQTLSLTCTVSGFSLTSYHVHWVRQPPGKGLEWMGVMWSDGDTSHKSALKSRLSISRDTSKSQVFLKMNSLQTEDTATYYCARDSSTEGIPFDYWGQGAMVTVSS VL: DIVLTQSPALAVSLGQRATISCRASQSVSMSRFYLMHWYQQKPGQQPKVLIYRASNLASGIPARFSGSGSGTDFTLTINPVQADDIATYYCQQTRESPRTFGGGTKLELK	binds	binds
48.60E11.A7 (antibody, V domains shown) VH: QVQLKESGPGLVQPSQTLSLTCTASGFSLTTNGVSWVRQPPGKGLEWIAAISSGGSTYYNSALKTRLSISRDTSKSQVFLKMNSLQTKDTAIYFCTSAGGNRFAYWGQGTLVTVSS VL: SYELIQPPSASVTLENTVSITCSGDELSNKYTHWFQQKPDKTILEVMYKDSERPSGISDRFSGSSSGTTAILTIRDAQAEDEADYYCLSSYTDDDILVFGGGTKLTVL	binds	binds
44.110G5.B6 (antibody, V domains shown) VH: QVTLKESGPGILQSSQTLSLTCSFSGFSLSTSGLGVSWIRQPSGKGLEWLAHIYWDDDKRYNPSLKSRLTISKDTSRNQVFLKITSVDTADTATYYCARRRSLYFYFDVWGTGTTVTVSS VL: QIVLTQSPTIMSASPGEKVTISCSAISSVSYMYWYQQKPGSSPKPWIYRTSNLASGVPARFSGSGSGTSYSLTISSMEAEDAATYYCQQYHSYPPTFGSGTKLEIK	binds	binds
44.93D1.E7 (antibody, V domains shown) VH: QVQLQQSGAELVRPGASVTLSCKASGYTFTDYDMHWVKQTPVHGLEWIGAIDPETGGTTYNQKFKGKAILTADKSSSTAYMELRSLTSEDSAVYYCTRLAWFAYWGQGTLVTVSA VL: ETTVTQSPASLSMAVGEKVTIRCITSTDIDDDMNWFHQKPGEPPKLLISEGNTLRPGVPSRFSSSGYGTDFVFTIENMLSEDVADYYCLQSDNLPLTFGAGTKLELK	binds	binds
44.20H2.A8 (antibody, V domains shown) VH: QVTLKESGPGILQSSQTLSLTCSFSGFSLNTSGMAVSWIRQSSGKGLEWLAHIYWDDDKRYNPSLKSRLTISKDISRNQVFLKITSVDTADTATYFCARREGDWYFDVWGTGTTVTVSS VL: QIVLTQSPAIMSASPGEMVTISCSASSRISYMYWYQQKPGSSPKPWIFRTSNLASGVPTRFSGSGSGTSYSLTISSMEAEDAATYYCQQYHTSPLTFGAGTKLELK	binds	binds
44.25D8.D4 (antibody, V domains shown) VH: QVTLKESGPGILQSSQTLSLTCSFSGFSLSTSGMAVSWIRQPSGKGLEWLAHIYWDDDKRYNPSLKSRLTISKDTSRNQVFLKITSVDTTDTATYYCARRGPGTWYFDVWGTGTTVTVSS VL: QIVLTQSPAIMSASPGEKVTISCSASSSVVYMYWYQQQPGSSPKPWIYRTSNLASGVPARFSGSGSGTSYSLTISSMEAEDAATYYCQQYHSSPLTFGAGTKLELK	binds	binds
44.7A3.E10 (antibody, V domains shown) VH: QVTLKESGPGILQSSQTLSLTCSFSGFSLSTSGMGVAWIRRPSGKGLEWLAHIYWDDDKRYNPSLKSRLTISKDTSRNQVFLKITSVDTADTATYYCARRGPGTWYFDVWGTGTTVTVSS VL: QIVLTQSPAIMSASPGEKVTISCSASSSVSYMYWYQQKPGSSPKPWIYRTSNLASGVPARFSGSGSGTSYSLTISSMEAEDAATYYCQQYHSSPLTFGAGTKLELK	binds	binds
